# Measurements as given in US11696581B2, “Monoterpenoid/phenylpropanoid-containing compounds and methods of their making and use as seed treatments” (KITTRICH CORPORATION, priority 2016, dated 2023).
# At least one structure is not confirmed: it was looked up by name or label, or the drawing left a doubt.
# Key:
# [1] = test system: Western corn rootworm larvae; test: Western corn rootworm survival assay (treated corn seeds); format: in vivo; conditions: corn seeds coated 1% weight/weight; 6 neonatal larvae per cup; 7 days at 28° C.; α=0.05; control survival 67.8±3.7%
# Procedure: Solo® condiment cups with lids. Germination of seeds was performed by carefully applying 500 μL of de-ionized water in order to fully surround each seed with water at the bottom of the cup. Parafilm® wax was placed over the top of the cup to maintain moisture and encourage germination of the seeds. Cups containing moistened seeds were allowed to germinate in the dark for 3 days before the start of the assay. Six live neonatal Western corn rootworm larvae were carefully applied to the roots of germinated corn seeds for each cup. After applying the larvae to the roots, 30 g of dried soil, sieved with a 600-μm Fisher Brand sieve and moistened with 4.5 mL of water, was applied evenly throughout the cup. Organza was placed over the top of the cup and fastened in place with a cup lid. Cups were incubated at 28° C. in 40-50% humidity for 7 days. Surviving corn rootworm were enumerated and the average percentage survival was reported. A minimum of 10 replicates were performed for each treatment.
# [2] = test system: Western corn rootworm larvae; test: Western corn rootworm repellency assay (treated vs untreated corn sides); format: in vivo; conditions: one side treated seeds; one week; control 20% declared dead
# Excerpt: Three treated seeds were germinated on one side of a plastic Genpack deli container (32 oz.) 5 days prior to infesting the container with western corn rootworm larvae. On the other side, three untreated seeds were germinated at the same time diagonally across from the treated seeds. Containers were infested by placing 30 rootworm into the middle of the container, on the top of the soil. Rootworm were allowed to choose which side to feed on primarily. Containers infested with western corn rootworm were incubated at 28° C. and 40±10% relative humidity for one week. After one week, containers were removed and soil was mechanically sifted through to quantify the number of living larvae. The total number of larvae present on the treated side vs. the untreated side were averaged from a minimum of three replicates. If repellency was observed (i.e. more rootworm found on the untreated side than the treated side), the experiment was repeated to confirm repellency in subsequent experiments. The number of rootworm missing were also enumerated. Data was averaged from a minimum of three replicates and over 90 larvae used in the total repellency assessment for each compound.
smiles,measurement,setting,value
"CC(C)=CCCC(C)CC(=O)OCC(COC(=O)CC(C)CCC=C(C)C)OC(=O)CC(C)CCC=C(C)C (centres unmarked) [glycerol triscitronellate, tricitronelloylglycerol]",larval survival compared to the control,[1],significantly lower larval survival than the control
same,larval mortality (missing larvae declared dead) in repellency arena,[2],higher larval mortality that was statistically significant compared to the control
